This test has as its target T1, Wt GreA protein with a C-terminal His-tag (GreA-His) (E. coli) (UniProt P0A6W5).
T1 sequence: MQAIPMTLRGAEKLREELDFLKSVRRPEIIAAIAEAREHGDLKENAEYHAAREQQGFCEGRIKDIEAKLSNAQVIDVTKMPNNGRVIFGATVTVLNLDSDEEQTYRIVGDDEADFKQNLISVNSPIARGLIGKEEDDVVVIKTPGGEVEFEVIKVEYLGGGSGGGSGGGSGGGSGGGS
The test is described as follows: pull-down; GreA-His held on Dynabeads His-Tag magnetic beads from whole cell extracts of E. coli CF14758 (ΔgreA ΔgreB); co-purified RNAP estimated by anti-RpoA Western blot normalised to GreA-His; untagged competitor GreA (Wt, S121P or E59G) induced with increasing IPTG for 30 min; 50 mM sodium-phosphate pH 8.0, 300 mM NaCl, 0.01% Tween-20, 5 min at room temperature.

By UniProt entry, the sequences of proteins in these tests, tags left out. Where a name states a change or a piece, a line headed by the entry shows the natural chain unless it says otherwise.
UniProt P0A7Z4: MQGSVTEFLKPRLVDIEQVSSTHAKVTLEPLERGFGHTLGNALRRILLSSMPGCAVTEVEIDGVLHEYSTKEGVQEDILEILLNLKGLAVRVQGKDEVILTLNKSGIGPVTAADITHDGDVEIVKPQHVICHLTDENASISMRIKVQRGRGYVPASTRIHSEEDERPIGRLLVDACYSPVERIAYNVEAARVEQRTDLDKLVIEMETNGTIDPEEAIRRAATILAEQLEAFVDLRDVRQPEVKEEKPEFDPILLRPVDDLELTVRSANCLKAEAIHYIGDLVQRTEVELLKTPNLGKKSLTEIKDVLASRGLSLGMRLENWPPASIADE

Results are given in words; binding and its absence hold for the method and conditions named. In cells and extracts the contact can be indirect. Some binding calls cover weakened binding; strength is not graded here. Sequences can lack the tags named with a protein.

In the case of “E. coli RNA polymerase (RNAP) (from UniProt P0A7Z4 1-329; P0A8V2 1-1342; P0A8T7 1-1407; P0A800 1-91) (complex)”, the binding entry is listed as “binds”.

Source of the values: paper PMC7527559.
